These are yes or no findings as the source states them, for the method shown. In cells and extracts the contact can be indirect. These calls come from enrichment with a bait or labelling near it, and not all partners need be listed.
Biological target: FLAG-SNAIL1 (UniProt O95863)
Assay: affinity purification with mass spectrometry; tandem affinity purification of SNAIL1 complexes from MDA-MB-231 cells stably expressing FLAG-SNAIL1, then mass spectrometric analysis

Chains of the proteins cited; added tags and fusions are not shown.
UniProt O95863: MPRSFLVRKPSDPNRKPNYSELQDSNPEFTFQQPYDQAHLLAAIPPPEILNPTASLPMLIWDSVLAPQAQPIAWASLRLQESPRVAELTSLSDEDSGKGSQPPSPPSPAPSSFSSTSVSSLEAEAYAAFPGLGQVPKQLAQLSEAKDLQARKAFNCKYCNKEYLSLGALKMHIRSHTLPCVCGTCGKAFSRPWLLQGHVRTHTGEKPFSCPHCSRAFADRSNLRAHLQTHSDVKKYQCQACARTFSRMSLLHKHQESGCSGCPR
UniProt P68400: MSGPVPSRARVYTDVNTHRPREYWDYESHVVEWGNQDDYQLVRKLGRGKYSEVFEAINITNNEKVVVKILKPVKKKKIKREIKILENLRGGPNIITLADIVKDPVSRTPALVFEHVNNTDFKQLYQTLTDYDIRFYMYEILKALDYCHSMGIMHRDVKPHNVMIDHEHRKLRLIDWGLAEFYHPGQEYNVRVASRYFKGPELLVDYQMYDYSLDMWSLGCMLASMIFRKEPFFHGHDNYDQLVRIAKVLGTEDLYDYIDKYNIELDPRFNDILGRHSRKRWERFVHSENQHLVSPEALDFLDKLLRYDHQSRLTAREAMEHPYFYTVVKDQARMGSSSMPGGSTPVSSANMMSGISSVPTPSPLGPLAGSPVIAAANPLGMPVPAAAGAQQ
UniProt Q93009: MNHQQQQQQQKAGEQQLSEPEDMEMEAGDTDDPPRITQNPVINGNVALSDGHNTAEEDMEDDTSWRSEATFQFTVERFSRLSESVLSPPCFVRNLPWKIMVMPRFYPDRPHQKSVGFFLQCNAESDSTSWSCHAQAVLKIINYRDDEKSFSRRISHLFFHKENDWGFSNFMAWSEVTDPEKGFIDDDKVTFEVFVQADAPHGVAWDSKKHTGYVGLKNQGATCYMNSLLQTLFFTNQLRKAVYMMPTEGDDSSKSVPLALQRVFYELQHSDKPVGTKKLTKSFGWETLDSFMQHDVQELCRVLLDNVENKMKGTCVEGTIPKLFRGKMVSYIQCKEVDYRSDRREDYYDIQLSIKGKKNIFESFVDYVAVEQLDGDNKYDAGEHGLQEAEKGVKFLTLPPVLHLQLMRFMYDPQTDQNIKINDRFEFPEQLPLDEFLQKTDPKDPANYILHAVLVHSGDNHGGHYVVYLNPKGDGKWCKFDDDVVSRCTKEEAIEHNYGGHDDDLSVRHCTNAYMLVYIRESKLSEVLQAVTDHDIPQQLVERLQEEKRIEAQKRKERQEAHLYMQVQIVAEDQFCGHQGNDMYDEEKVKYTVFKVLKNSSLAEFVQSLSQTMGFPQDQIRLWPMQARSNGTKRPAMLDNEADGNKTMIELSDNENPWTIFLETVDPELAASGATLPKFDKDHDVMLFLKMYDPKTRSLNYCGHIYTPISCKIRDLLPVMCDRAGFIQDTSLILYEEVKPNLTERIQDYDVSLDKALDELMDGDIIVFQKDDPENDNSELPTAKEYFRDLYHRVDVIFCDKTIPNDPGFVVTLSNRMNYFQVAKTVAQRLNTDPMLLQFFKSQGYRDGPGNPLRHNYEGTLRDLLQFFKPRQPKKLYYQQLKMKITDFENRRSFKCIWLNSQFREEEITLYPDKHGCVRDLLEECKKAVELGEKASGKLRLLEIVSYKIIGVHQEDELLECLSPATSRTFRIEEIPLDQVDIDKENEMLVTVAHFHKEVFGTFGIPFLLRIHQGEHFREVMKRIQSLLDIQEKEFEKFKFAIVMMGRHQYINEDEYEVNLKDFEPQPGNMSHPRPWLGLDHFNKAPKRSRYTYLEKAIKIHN
UniProt P51784: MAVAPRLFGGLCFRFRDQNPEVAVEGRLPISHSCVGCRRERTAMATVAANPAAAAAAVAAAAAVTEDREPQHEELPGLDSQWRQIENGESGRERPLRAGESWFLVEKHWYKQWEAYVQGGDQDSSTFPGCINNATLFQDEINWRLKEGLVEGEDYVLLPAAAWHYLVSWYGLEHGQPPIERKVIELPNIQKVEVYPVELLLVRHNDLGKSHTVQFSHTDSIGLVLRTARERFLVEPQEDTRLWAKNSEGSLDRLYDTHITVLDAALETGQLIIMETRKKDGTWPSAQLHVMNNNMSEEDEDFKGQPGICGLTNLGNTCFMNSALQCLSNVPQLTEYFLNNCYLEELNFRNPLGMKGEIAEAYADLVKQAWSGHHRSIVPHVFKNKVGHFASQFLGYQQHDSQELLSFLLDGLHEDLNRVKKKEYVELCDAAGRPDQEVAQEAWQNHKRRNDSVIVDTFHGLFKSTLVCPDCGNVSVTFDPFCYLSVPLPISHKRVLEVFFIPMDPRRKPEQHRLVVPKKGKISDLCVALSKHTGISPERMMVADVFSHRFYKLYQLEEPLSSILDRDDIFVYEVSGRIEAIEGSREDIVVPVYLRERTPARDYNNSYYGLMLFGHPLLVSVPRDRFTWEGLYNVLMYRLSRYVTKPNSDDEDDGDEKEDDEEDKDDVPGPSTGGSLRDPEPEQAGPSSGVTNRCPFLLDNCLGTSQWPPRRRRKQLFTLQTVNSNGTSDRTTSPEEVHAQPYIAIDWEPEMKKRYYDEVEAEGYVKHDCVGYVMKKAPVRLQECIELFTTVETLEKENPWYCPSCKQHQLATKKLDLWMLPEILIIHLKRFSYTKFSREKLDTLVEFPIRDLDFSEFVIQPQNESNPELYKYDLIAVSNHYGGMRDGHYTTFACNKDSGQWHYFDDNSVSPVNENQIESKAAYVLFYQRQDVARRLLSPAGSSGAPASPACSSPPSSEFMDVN

CSNK2A1 (from UniProt P68400 1-391) (enzyme)
binding: binds

USP7 (from UniProt Q93009 1-1102) (enzyme)
binding: binds

USP11 (from UniProt P51784 1-963) (enzyme)
binding: binds

B1: deubiquitinating enzyme 3 (DUB3), endogenous (enzyme, UniProt Q6R6M4 1-530)
chain: MEDDSLYLGGEWQFNHFSKLTSSRPDAAFAEIQRTSLPEKSPLSSEARVDLCDDLAPVARQLAPRKKLPLSSRRPAAVGAGLQNMGNTCYENASLQCLTYTPPLANYMLSREHSQTCQRPKCCMLCTMQAHITWALHSPGHVIQPSQALAAGFHRGKQEDAHEFLMFTVDAMKKACLPGHKQVDHHSKDTTLIHQIFGGCWRSQIKCLHCHGISDTFDPYLDIALDIQAAQSVKQALEQLVKPEELNGENAYHCGLCLQRAPASKTLTLHTSAKVLILVLKRFSDVTGNKLAKNVQYPECLDMQPYMSQQNTGPLVYVLYAVLVHAGWSCHDGHYFSYVKAQEGQWYKMDDAKVTACSITSVLSQQAYVLFYIQKSEWERHSESVSRGREPRALGAEDTDRRATQGELKRDHPCLQAPELDERLVERATQESTLDHWKFPQEQNKTKPEFNVRKVEGTLPPNVLVIHQSKYKCGMKNHHPEQQSSLLNLSSTTRTDQESVNTGTLASLQGRTRRSKGKNKHSKRALLVCQ
binding: binds

— PMC5228031, “CDK4/6-dependent activation of DUB3 regulates cancer metastasis through SNAIL1” (Nature Communications, 2017)
